Measurements published in the supplement of paper PMC12009310.
Counter-ions that a name gives are not always drawn. ± gives the standard deviation of the averaged measurements. The list shows a part of the results. Plates or batches differ in their baseline, so values are only roughly comparable.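 The cells are a mouse kidney inner medullary collecting duct line, silenced either for the ciliary gene Rpgrip1l or with a non-targeting control siRNA.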

Key:
mIMCD3 [1] = assay: robust z score of cell number vs plate controls; higher = more cells (less cytotoxic); conditions: 10 µM, 48 h
mIMCD3 [2] = assay: robust z score of cilia incidence (% cells with single cilium) vs plate controls; higher = more ciliated cells; conditions: 10 µM; 48 h; siRNA: siScr
mIMCD3 [3] = assay: robust z score of cilia incidence (% cells with single cilium) vs plate controls; higher = more ciliated cells (rescue of cilia loss); conditions: 10 µM; 48 h; siRNA: siRpgrip1l

SMILES | robust z score of cell number (mIMCD3 [1]; siRNA: siRpgrip1l) | robust z score of cell number (mIMCD3 [1]; siRNA: siScr) | robust z score of cilia incidence (mIMCD3 [2]) | robust z score of cilia incidence (mIMCD3 [3])
Cc1cccc(C)c1NC(=O)C[N+](C)(C)C | -5.62 ± 2.7 | 1.16 ± 0.6 | -0.41 ± 2.2 | -10.5 ± 1.7
O/N=C/c1ccc(-c2ccc(O)c(F)c2)c(Cl)c1O | -7.39 ± 3.9 | -4.29 ± 1.6 | -6.85 ± 12 | -6.83 ± 1.6
Clc1ccc(CCCOCCCN2CCCCC2)cc1 | -61.1 ± 53 | -51.5 ± 1.2 | -79.7 ± 19 | -43.76 ± 0.33
O=C(O)c1cccnc1C(=O)O [Quinolinic acid] | 9.38 ± 16 | 9.16 ± 1.8 | 1.42 ± 1.8 | -4.88 ± 0.87
COC1(C2=NCCN2)COc2ccccc2O1 (stereo not drawn) | -41.8 ± 15 | -1.83 ± 0.47 | -4.15 ± 7 | -9.78 ± 1
O=C(O)COc1cccc(-c2ocnc2-c2nc(-c3ccccc3)c(-c3ccccc3)o2)c1 | -179 ± 200 | -41.6 ± 9.6 | -5.92 ± 4.2 | -231 ± 140
C=CCN1CCc2cc(O)c(O)cc2C(c2ccccc2)C1 (stereo not drawn) | -159 ± 170 | -42.3 ± 9.6 | -25.2 ± 9 | -338 ± 190
COP(=O)(OC)OC(c1ccc(Cl)cc1)P(=O)(OC)OC (stereo not drawn) | -4.11 ± 0.68 | -5.78 ± 6.3 | -1.58 ± 2.8 | -17.6 ± 15
O=C1CCC(N2C(=O)c3ccccc3C2=O)C(=O)N1 (stereo not drawn) [Thalidomide] | 1.87 ± 4.3 | -3.2 ± 1.7 | 1.5 ± 3.3 | -8.27 ± 2.2
CCCNC(=O)N1N=C(c2ccc(N)cc2)c2cc3c(cc2C1C)OCO3 (stereo not drawn) | -11.7 ± 0.51 | -13.8 ± 11 | -21.2 ± 6.2 | -20.9 ± 3
OC(CCCN1CCN(c2ncc(F)cn2)CC1)c1ccc(F)cc1 (stereo not drawn) | -24.8 ± 25 | -2.99 ± 2.8 | -2.25 ± 2.4 | -196 ± 150
CCOC(=O)C1=C(N)Oc2ccc(Br)cc2C1C(C#N)C(=O)OCC (stereo not drawn) | -52.3 ± 61 | -0.21 ± 0.88 | 1.37 ± 0.35 | -7.88 ± 1.9
O=C1CCc2cc(OCCCCc3nnnn3C3CCCCC3)ccc2N1 [Cilostazol] | -12.1 ± 11 | -16.5 ± 8.6 | -22.2 ± 24 | -32.7 ± 12
C=CC(=O)c1ccc2ccccc2c1 | -24.4 ± 25 | -5.04 ± 0.19 | 5.15 ± 3.6 | -6.74 ± 1.8
CN/C(=N\c1ccc(C2=NNC(=O)CC2C)cc1)NC#N (stereo not drawn) [Siguazodan] | -9.41 ± 6.7 | -0.505 ± 2.8 | 1.09 ± 0.38 | -14.2 ± 1.8
Cc1cc(C)c(S(=O)(=O)Nc2ccccc2C(F)(F)F)c(C)c1 | -9.07 ± 6.3 | -8.28 ± 0.37 | 7.3 ± 3.2 | -10.4 ± 1.3
COc1ccc(NC(=O)c2cc(OCCCN(C)C)nn2Cc2ccccc2)cc1 [CFM 1571 hydrochloride] | -10.8 ± 0.6 | -45.4 ± 37 | -11.7 ± 5.9 | -29.4 ± 5.7
Cc1nc2sccn2c(=O)c1CCN1CCC(=C(c2ccccc2)c2ccc(F)cc2)CC1 | -41.2 ± 27 | -55.1 ± 29 | -30.7 ± 13 | -50.8 ± 17
Cc1ccc(CC2(O)CCN(CCOc3ccc(O)cc3)CC2)cc1 | -21.7 ± 10 | -21.4 ± 5.7 | -28.8 ± 18 | -26.3 ± 16

Looked up by compound from above, 2 records:
SMILES | robust z score of cell number (mIMCD3 [1]; siRNA: siRpgrip1l) | robust z score of cell number (mIMCD3 [1]; siRNA: siScr) | robust z score of cilia incidence (mIMCD3 [2]) | robust z score of cilia incidence (mIMCD3 [3])
COc1ccc(NC(=O)c2cc(OCCCN(C)C)nn2Cc2ccccc2)cc1 [CFM 1571 hydrochloride] | -10.8 ± 0.6 | -45.4 ± 37 | -11.7 ± 5.9 | -29.4 ± 5.7
OC(CCCN1CCN(c2ncc(F)cn2)CC1)c1ccc(F)cc1 (stereo not drawn) | -24.8 ± 25 | -2.99 ± 2.8 | -2.25 ± 2.4 | -196 ± 150

The listing continues:

SMILES | robust z score of cell number (mIMCD3 [1]; siRNA: siRpgrip1l) | robust z score of cell number (mIMCD3 [1]; siRNA: siScr) | robust z score of cilia incidence (mIMCD3 [2]) | robust z score of cilia incidence (mIMCD3 [3])
CC(C)NCC(O)COc1ccccc1-n1cccc1 (stereo not drawn) [Isamoltane hemifumarate] | -4.83 ± 3 | -5.16 ± 1.1 | -5.73 ± 0.43 | -7.48 ± 3.3
NCCCCCc1c[nH]cn1 [Impentamine dihydrobromide] | -0.0316 ± 1.7 | 0.922 ± 5.5 | -3.34 ± 0.73 | -23.9 ± 18
CC(C)[C@H](NS(=O)(=O)c1ccc(-c2ccc(Br)cc2)cc1)C(=O)O | -4.98 ± 5.4 | 1.2 ± 8.5 | 1.75 ± 5.7 | -6.81 ± 0.24
CC[C@@H]1C(=O)OC[C@@H]1Cc1cncn1C [Pilocarpine hydrochloride] | -2.83 ± 2.5 | 1.19 ± 3.6 | 0.698 ± 1.8 | -7.91 ± 0.93
COC(=O)C1=C(C)NC(C)=C([N+](=O)[O-])C1c1ccccc1C(F)(F)F (racemic) | -39.8 ± 48 | 2.63 ± 5.9 | 2.12 ± 0.18 | -164 ± 110
Cc1ccc(=O)n(-c2ccccc2)c1 [Pirfenidone] | -9.6 ± 3.9 | -0.363 ± 5.4 | -0.36 ± 1.8 | -17.3 ± 1.5
COC(=O)C1=C(C)NC(C)=C(C(=O)OC)C1c1ccccc1[N+](=O)[O-] [Nifedipine] | -9.47 ± 1.4 | -3.74 ± 2.7 | 1.6 ± 1.7 | -13.8 ± 3.7
CC[N+](CC)(CC)CC(=O)Nc1c(C)cccc1C [QX 314 chloride] | -7.52 ± 6.5 | -0.845 ± 2.2 | 2.43 ± 2.8 | -9.96 ± 3.4
CCCCCCCCCCCCCCCCn1cc[n+](Cc2ccccc2)c1C | -30.3 ± 29 | -12.9 ± 12 | -21.2 ± 13 | -25.9 ± 6.3
CC(Cc1ccccc1)(NC(=O)CN)c1ccccc1 (stereo not drawn) [Remacemide hydrochloride] | -23.6 ± 24 | -2.75 ± 2.2 | 0.305 ± 5 | -137 ± 94
CCCN(C/C=C/I)C1CCc2cccc(O)c2C1 (stereo not drawn) [8-Hydroxy-PIPAT oxalate] | -49.1 ± 64 | -4.19 ± 7.2 | -0.0375 ± 0.64 | -6.8 ± 0.72
CCN1CCC[C@H]1CNC(=O)c1c(OC)ccc(Br)c1OC [Remoxipride hydrochloride] | -3.04 ± 1.1 | -0.211 ± 1.9 | -4.35 ± 2.2 | -10.1 ± 4
COC(=O)/C=C/c1cccc(N(Cc2ccc(-c3ccc(N(C)C)cc3)cc2)C(=O)C2CCCCC2)c1 [Fexaramine] | -11.4 ± 1.5 | -45.3 ± 29 | -10.3 ± 1.4 | -22.5 ± 4.2
O=C(O)c1cc(=O)c2ccccc2[nH]1 [Kynurenic acid] | 6.69 ± 6.4 | 2.18 ± 6.4 | 0.608 ± 1.6 | -5.69 ± 6
CC1=C(/C=C/C(C)=C/C=C/C(C)=C/C(=O)Nc2ccc(O)cc2)C(C)(C)CCC1 [Fenretinide] | -305 ± 220 | -40.3 ± 9.5 | -52.9 ± 9.7 | -30.6 ± 11
CC(C)c1ccc(C(=O)c2cccs2)c(SCCCCCCCCN(C)C)n1 | -53 ± 51 | -28.3 ± 23 | -18.3 ± 12 | -27.3 ± 16
c1cnc(N2CCN(Cc3ccc4c(c3)OCO4)CC2)nc1 [Piribedil] | -14.2 ± 16 | -0.339 ± 0.74 | 0.347 ± 3 | -15.4 ± 1.1
CN1CC2c3ccccc3Oc3ccc(Cl)cc3C2C1 (stereo not drawn) [Asenapine maleate] | -7.73 ± 1.9 | -18.7 ± 0.63 | -13.3 ± 0.57 | -16.1 ± 7.8
